Results as given in patent US11680082B2, “Conjugates of montelukast and peptides” (ENLITISA (SHANGHAI) PHARMACEUTICAL CO., LTD, priority 2018, dated 2023).
Part of at least one peptide drawing is inferred or uncertain, most often the ends. Some entries repeat one wording, which the source may state once for all of them. Non-standard residues stand in square brackets, D forms with d. Residues, ends and D or L forms follow the SMILES beside them. *: point of attachment. X1 = C=C(C)c1ccccc1CC[C@@H](SCC1(CC(=O)*)CC1)c1cccc(/C=C/c2ccc3ccc(Cl)cc3n2)c1; Hyp = O=C(O)[C@@H]1C[C@@H](O)CN1

Experiments:
[1] = test system: xylene induced ear swelling; assay: Mouse ear swelling model I (xylene); format: in vivo, BALB/c mice; conditions: xylene on right ear, topical treatment, 40 minutes; (right ear weight−left ear weight)/left ear weight
diabetic skin wound [2] = assay: Diabetic wound model I; format: in vivo, db/db mice (C57BL/KsJ-db/db); conditions: histology
Description: A similar experiment with essentially the same protocol to that described in Example 6 above was carried out on 8 to 12 week-old male db/db mice (C57BL/KsJ-db/db), with a body weight of 35-45 g/mouse (Changzhou Cvens Experimental Animal Co. Ltd.).
An EMS skin biopsy punch with a 18 mm diameter was used to make wounds.
Different drugs were administrated topically at 50 μL/wound, once daily from Day 0 to Day 12. The model group was given same amount of normal saline.
Photographs were taken for each wound every other day from Day 0. Photos were scanned into a computer, and wound areas calculated using ImageJ image analysis software (National Institute of Health, USA).
The unhealed wound area was expressed as a percentage of the original wound area: At/A0×100%, where A0 and At refer to the initial area at Day 0 and the wound area at the date of measurement (time t), respectively.
Histological specimens were analyzed and skin regeneration, fibroblast proliferation, collagen regeneration scores (Masson score) and inflammation scores were estimated as follows.
The HE and Masson stained slices were observed under an optical microscope and were scored (1, 2 or 3 points) according to the following criteria. […]

diabetic skin wound [3] = assay: Diabetic wound model II; format: in vivo, db/db mice (C57BL/KsJ-db/db)
Description: A similar experiment with essentially the same protocol to that described in Example 7 above was carried out on 8 to 12 week-old male db/db mice (C57BL/KsJ-db/db) with a body weight of 35-45 g/mouse (Changzhou Cvens Experimental Animal Co. Ltd.).
Different concentrations of Compound A and Compound 1 (“A” and “1” respectively, as indicated in the Table 5 below) were prepared in substantially the same way as described in Examples 6 and 7 above.
Different drugs were administrated topically at 50 μL/wound, once daily from Day 0 to Day 12, as show in Table 5 below.
The model group was given same amount of normal saline. There were 8 mice in each group. 4 mice were in the control group. The skin pieces taken during wound creation were used as the samples at Day 7 for the control group.
Histological specimens were analyzed as described in Example 7 above, except that the collagen deposition score criterion for the Masson stained sample were as follows. A comparison was made with normal tissue. No clear blue staining was given 0 points; blue fiber appearing in a scattered pattern was scored as 1 points; if more blue fiber appeared, this was scored as 2 points, and a diffuse blue colour was given 3 points.

[4] = test system: full thickness skin wound; assay: Acute wound model II; format: in vivo, C57BL/6 mice; conditions: topical once daily Day 0 to Day 7
Description: A similar experiment with essentially the same protocol to that described in Example 6 above was carried out on 6 to 8 week-old male C57BL/6 mice, EMS skin biopsy punch with a 12 mm diameter was used to make two round wounds on the midline of the back. The two circles were tangential to each other and the skin between the circles was cut along the upper and lower tangents. Scissors were used to trim the wound. The wound was an oval shape. […] The model group was given same amount of normal saline. [table]

[5] = test system: bleomycin pulmonary fibrosis; assay: Animal Model I, idiopathic pulmonary fibrosis (bleomycin); format: in vivo, Sprague Dawley rats; conditions: 28 days of administration
[6] = test system: HSV-2 (SAV strain) in Vero cells; assay: Cytopathic effect after drug directly acting on HSV-2; format: cell-based, human herpes simplex virus type-II; conditions: drug incubated 1 hour with 100 TCID50 HSV-2, then Vero cells, 24 hours
HSV-2 in Vero cells = assay: Effect on HSV-2 (direct method); format: cell-based, human herpes simplex virus type-II; conditions: drug added after 1 hour virus adsorption, 24 hours

Compound: C=C(C)c1ccccc1CC[C@@H](SCC1(CC(=O)N[C@@H](C)C(=O)N[C@@H](CCCCN)C(=O)N2CCC[C@H]2C(=O)N[C@@H](CO)C(=O)N[C@@H](Cc2ccc(O)cc2)C(=O)N2C[C@H](O)C[C@H]2C(=O)N2C[C@H](O)C[C@H]2C(=O)N[C@H](C(=O)N[C@@H](Cc2ccc(O)cc2)C(=O)N[C@@H](CCCCN)C(=O)O)[C@@H](C)O)CC1)c1cccc(/C=C/c2ccc3ccc(Cl)cc3n2)c1 [Compound A, Montelukast Styrene-Ala-Lys-Pro-Ser-Tyr-Hyp-Hyp-Thr-Tyr-Lys] (X1-AKPSY[Hyp][Hyp]TYK-OH)
- Swelling rate [1]: 55%
- Skin regeneration score (diabetic skin wound [2]): could promote the skin regeneration
- ratio of remaining wound area of initial wound (Mean) (diabetic skin wound [3]; high dose (H), D1): 1.000
- ratio of remaining wound area of initial wound (Mean) (diabetic skin wound [3]; high dose (H), D2): 0.884
- ratio of remaining wound area of initial wound (Mean) (diabetic skin wound [3]; high dose (H), D4): 0.829
- ratio of remaining wound area of initial wound (Mean) (diabetic skin wound [3]; high dose (H), D6): 0.692
- ratio of remaining wound area of initial wound (Mean) (diabetic skin wound [3]; high dose (H), D8): 0.508
- ratio of remaining wound area of initial wound (Mean) (diabetic skin wound [3]; high dose (H), D10): 0.447
- ratio of remaining wound area of initial wound (Mean) (diabetic skin wound [3]; high dose (H), D12): 0.361
- ratio of remaining wound area of initial wound (Mean) (diabetic skin wound [3]; low dose (L), D1): 1.000
- ratio of remaining wound area of initial wound (Mean) (diabetic skin wound [3]; low dose (L), D2): 1.058
- ratio of remaining wound area of initial wound (Mean) (diabetic skin wound [3]; low dose (L), D4): 0.864
- ratio of remaining wound area of initial wound (Mean) (diabetic skin wound [3]; low dose (L), D6): 0.773
- ratio of remaining wound area of initial wound (Mean) (diabetic skin wound [3]; low dose (L), D8): 0.527
- ratio of remaining wound area of initial wound (Mean) (diabetic skin wound [3]; low dose (L), D10): 0.471
- ratio of remaining wound area of initial wound (Mean) (diabetic skin wound [3]; low dose (L), D12): 0.368
- collagen deposition (Masson stain) (diabetic skin wound [3]; medium dose): significant promoting effect on collagen deposition
- ratio of remaining wound area of initial wound (Mean) (diabetic skin wound [3]; medium dose (M), D1): 1.000
- ratio of remaining wound area of initial wound (Mean) (diabetic skin wound [3]; medium dose (M), D2): 0.971
- ratio of remaining wound area of initial wound (Mean) (diabetic skin wound [3]; medium dose (M), D4): 0.952
- ratio of remaining wound area of initial wound (Mean) (diabetic skin wound [3]; medium dose (M), D6): 0.690
- ratio of remaining wound area of initial wound (Mean) (diabetic skin wound [3]; medium dose (M), D8): 0.479
- ratio of remaining wound area of initial wound (Mean) (diabetic skin wound [3]; medium dose (M), D10): 0.386
- ratio of remaining wound area of initial wound (Mean) (diabetic skin wound [3]; medium dose (M), D12): 0.238
- wound healing (diabetic skin wound [3]; medium dose, later stages): prompted better effects at the later stages
- unhealed wound rate [4]: comparable effects on promoting the wound healing
- TGF-β and inflammatory cytokines in lung tissue [5]: inhibits the overproduction of TGF-β and inflammatory cytokines
- antioxidation effect (SOD production, lipid oxidation) [5]: has an antioxidation effect
- cytopathic effect caused by viral infection [6]: inhibitory effect on HSV-2
- anti-virus effect (cytopathic effect) (HSV-2 in Vero cells): anti-virus effect
